In patent US10682310B2, “Therapeutic compounds and formulations for intranasal delivery” (priority 2015, dated 2020):

System: MDCKII-wt monolayer
Assay: Membrane permeation across MDCKII-wt monolayers (Transwell)
Details: DZP at near saturation solubility (85.7 μM, S=0.7), assay buffer pH 7.4, 32° C., n=4
Protocol: In vitro permeation studies were also performed on prodrug/enzyme mixtures prepared at various prodrug and enzyme concentrations. […] The experiments were carried out as follows. Maden Darby Canine Kidney-II wild type (MDCK-IIwt) cells were plated on thin membranes in a six well Transwell apparatus. Following confluence and washing, assay buffer (PBS, pH 7.4) was introduced into the basal side of the membrane. At time zero, solutions of various concentrations of prodrug were combined with 0.25 U/ml of A.O protease and introduced on the […] side of the membrane. Aliquots were then taken, with replacement, from both the basal and apical sides, and assayed for both drug and prodrug. The integrity of the membranes throughout the experiment was confirmed by transepithelial resistance (TEER) and inulin permeation measurements.
Following previously published procedures (Kapoor M, et al., AAPS J, 2014, 16, 3, 577-585; and Kapoor M, et al., Mol Pharm, 2013, 10, 9, 519-3524), Madin Darby canine kidney II wild type (MDCKII-wt: passages between 10 and 20) cells were cultured and grown as monolayers in 12-well Transwell plates ([…] pore size, polyester, Corning). Transepithelial electrical resistance (TEER) was measured to assure membrane integrity just prior to conversion/permeation experiments. […]

CN1C(=O)CN=C(c2ccccc2)c2cc(Cl)ccc21 [DZP, diazepam]
flux of DZP across MDCKII-wt monolayer: 0.00045±0.00007 μg/cm^2·sec
